Measured values as given in US20060253917A1.
These are yes or no findings as the source states them, for the method shown. Some results given as binding are weak or reduced against the parent protein; the word gives no strength. Each block holds one binder with its values, some of them ahead of it.

Chains of the proteins cited; added tags and fusions are not shown. Lines headed by an entry give the natural chain unless they say otherwise; changes in a name come on top.
UniProt Q6EU39: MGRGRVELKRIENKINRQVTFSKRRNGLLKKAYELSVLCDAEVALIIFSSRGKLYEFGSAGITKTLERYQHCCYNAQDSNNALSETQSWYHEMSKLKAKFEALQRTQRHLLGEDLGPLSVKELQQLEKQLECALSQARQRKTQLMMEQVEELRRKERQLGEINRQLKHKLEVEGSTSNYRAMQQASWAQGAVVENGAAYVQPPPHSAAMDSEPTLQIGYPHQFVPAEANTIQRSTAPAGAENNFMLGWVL

Experiments:
[1] = molecular target: T1, Os018989-4003 aa 90-220 (Oryza sativa); test: Y2H; output trait library
T1 sequence: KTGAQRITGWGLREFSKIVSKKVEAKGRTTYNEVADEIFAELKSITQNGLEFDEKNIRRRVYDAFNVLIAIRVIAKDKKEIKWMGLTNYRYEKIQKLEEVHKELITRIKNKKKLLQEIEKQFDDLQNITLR

[2] = molecular target: T2, OsGF14-c aa 1-150 (Oryza sativa) (UniProt Q6ZKC0); test: Y2H; input trait library
T2 sequence: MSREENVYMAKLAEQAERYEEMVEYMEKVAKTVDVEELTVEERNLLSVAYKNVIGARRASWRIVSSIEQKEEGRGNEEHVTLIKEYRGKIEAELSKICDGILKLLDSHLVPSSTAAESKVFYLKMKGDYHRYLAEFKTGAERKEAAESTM

[3] = molecular target: OsMADS6 aa 50-200 (Oryza sativa) (UniProt Q6EU39); test: Y2H; output trait library
[4] = molecular target: T3, OsDAD1 aa 30-115 (Oryza sativa) (UniProt A2XSY1); test: Y2H; input trait library
T3 sequence: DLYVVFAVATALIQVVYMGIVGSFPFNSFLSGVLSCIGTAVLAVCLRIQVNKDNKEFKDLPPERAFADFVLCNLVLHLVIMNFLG

[5] = molecular target: OsTFX1 aa 400-629 (Oryza sativa); test: Y2H; output trait library

binding [1]: binds
B1: OsAAG13527 aa 668-859 (protein)
chain: ELQARKQREAALEAALAEKEHLEEEYKKKFDEAKKKELSLENDLAGMWVLVAKLKRGALGISDLNVDDRSINLADITNGTKENKADKNVAVVEKQLSDNTVKSLTAEEYRNPEFEPLLVRLKAKIQEMKEKETDSLGDKDGNSHVCKVCFESATAAVLLPCRHFCLCKPCSLACSECPLCRTRIADRIITFT

binding [2]: binds
B2: OsPN23022 aa 149-285 (protein)
chain: KKADIGIAVADAIDAARSASDIVLTEPGLSVIISAVLTSRCIFQRMKNYTIYAVSITIRIVLGFLLIALIWKYDFSPFMVLIIAILNDGTIMTISKDRVKPSPLPDSWKLKEIFATGIVLGSYLALMTVIFFWAMHK

binding [3]: binds
B3: OsRP5 aa 13-140 (protein)
chain: VACNASARFDALSQSYRQYQLQSHLLLQQQVLSPCSEFVRQQHSIVATPFWQPATFQLINNQVMQQQCCQQLRLVAQQSHYQAISSVQAIVQQLQLQQVGVVYFDQTQAQAQALLALNLPSICGIYPN

binding [4]: binds
B4: OsPN23022 aa 37-371 (protein)
chain: LFDPPRHDSAETIRKALHLGVNVKMITGDQLAIGKETGRRLGMGTNMYPSSALLGQNKDASLEALPVDELIEKADGFAGVFPEHKYEIVKRLQEKKHIVGMTGDGVNDAPALKKADIGIAVADAIDAARSASDIVLTEPGLSVIISAVLTSRCIFQRMKNYTIYAVSITIRIVLGFLLIALIWKYDFSPFMVLIIAILNDGTIMTISKDRVKPSPLPDSWKLKEIFATGIVLGSYLALMTVIFFWAMHKTDFFTDKFGVRSIRNSEHEMMSALYLQVSIVSQALIFVTRSRSWSFIERPGLLLVTAFMLAQLVATFLAVYANWGFARIKGIGWGW

binding [5]: binds
B5: OsPN23829 prey clone -21-216 (protein)
chain: MALSVEKTSSGREYKVKDLSQADFGRLEIELAEVEMPGLMACRAEFGPSQPFKGARISGSLHMTIQTAVLIETLTALGAEVRWCSCNIFSTQDHAAAAIARDSAAVFAWKGETLEEYWWCTERCLDWGVGGGPDLIVDDGGDATLLIHEGVKAEEEFEKSGKVPDPESTDNAEFKIVLTIIRDGLKSDPSKYRKMKERLVGVSEETTTGVKRLYQM
